Data taken from PubChem BioAssay AID2685 (National Center for Advancing Translational Sciences (NCATS), 2010).
The other results are listed elsewhere or left out. These are further read-outs of the screen, such as a control signal, another cell line or another target. No call is given for them. The list favours compounds with an active or inconclusive main result. Potencies come from curve fits of mixed quality, noted in brackets.

Assay: qHTS Assay for Lipid Storage Modulators in Drosophila S3 Cells;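 as to cell number change: cells counted by Cell Tracker Red CMTPX staining in the red channel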
Settings: BODIPY lipid droplet fluorescence, 18-24 h; for cell number change: measured here: cell count max response, cells fed with added oleic acid
Method in brief: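 Drosophila S3 cells loaded with oleic acid (400 uM, as added) and compounds at several concentrations; lipid droplets imaged by 488-nm laser-scanning cytometry, 500–530 nm intensity and object ratio to cell channel. Percent activity normalized to 20 uM Triacsin C.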

[1] = measured here: lipid fluorescence (Fed channel) AC50, cells fed with added oleic acid
[2] = measured here: cell number channel AC50, cells fed with added oleic acid

Structure (SMILES)	cell number change [%]	AC50 [1]	AC50 [2]
Cc1ccc(N2CC(C(=O)N3CCc4ccccc43)CC2=O)cc1 (stereo unspecified)	18.4	–	–
CC(NC(=O)c1ccc(S(=O)(=O)N(C)C)cc1)c1ccccc1 (stereo unspecified)	–	6.51 µM [falling, single point]	–
CCc1ccccc1NNC(=O)CCc1ccccc1	-6.21	0.0651 µM [falling, full curve, poor fit]	–
Cc1cc(C)c(NC(=O)CO/N=C2\CCCc3nonc32)c(C)c1	-1.13	13 µM [rising, partial curve, poor fit]	–
CCOc1ccc(NS(=O)(=O)c2ccc(C(=O)NCC(c3ccco3)N(C)C)cc2)cc1 (stereo unspecified)	95.2	–	18.4 µM [rising, partial curve]
O=C(/C=C/c1ccco1)Nc1ccc2nn(-c3ccccc3)nc2c1	-20.4	10.3 µM [falling, partial curve]	–
Cc1cc(C(=O)N2CC=C(c3ccccc3)CC2)c2ccccc2n1	–	6.51 µM [rising, partial curve]	–
CN1CCN(C(=O)c2cc3nc(-c4ccccc4)cc(-c4ccccc4)n3n2)CC1	–	1.84 µM [rising, partial curve]	–
Cc1c(OCC(=O)N2CCC(C(=O)O)CC2)ccc2c3c(c(=O)oc12)CCCC3	37.6	6.51 µM [rising, single point]	9.2 µM [rising, partial curve]
CO/N=C/NC(=O)NOCc1ncc(C(F)(F)F)cc1Cl	41.4	–	25.9 µM [rising, single point]
Cn1cccc1Cc1nnc(SCC(=O)Nc2nccs2)n1C	-85	–	29.1 µM [falling, single point]
O=C(O)c1ccc2c(c1)C(=O)/C(=C/c1ccccc1)C2=O	-1.11	0.13 µM [falling, full curve, poor fit]	–
COc1cccc(CNC(=O)CN(C)S(=O)(=O)c2ccc3c(c2)CC(C)N3C(C)=O)c1 (stereo unspecified)	23.4	29.1 µM [rising, single point]	–
CC(C)n1c(N2CCN(CC(=O)Nc3ccc4c(c3)OCCO4)CC2)nc2ccccc21	–	–	6.51 µM [rising, single point]
CCOC(=O)N1CCN(C(=O)CNC(=O)c2ccc(Cl)cc2)CC1	-18.2	29.1 µM [rising, single point]	–
O=C(CCN1CCN(c2ccc([N+](=O)[O-])cc2)CC1)c1ccc(Cl)cc1	6.61	6.51 µM [falling, single point]	–
CC(C)Oc1ccc(C(CC(=O)NCCCN(C)C)c2ccc(F)cc2)cc1 (stereo unspecified)	53.9	0.146 µM [rising, full curve, poor fit]	29.1 µM [rising, single point]
CC(=O)N1CCN=C1SCc1cccc(C(F)(F)F)c1	14.2	29.1 µM [rising, single point]	–
COc1cc2c(cc1OC)C(C(=O)Nc1ccccc1N1CCN(C)CC1)C1c3ccccc3CCN1C2=O (stereo unspecified)	-32.8	29.1 µM [falling, single point]	18.4 µM [falling, partial curve, poor fit]
COc1ccc(C(NC(=O)CC(C)C)c2c(O)ccc3ccccc23)cc1 (stereo unspecified)	-6.48	29.1 µM [falling, single point]	–
Cc1c(C)c2c(OCC(=O)NCC(O)c3ccccc3)cc3c(c2oc1=O)CCC(C)(C)O3 (stereo unspecified)	-16.8	–	–
Cc1ccc(C(=O)Nc2c3c(nn2C(C)(C)C)CS(=O)(=O)C3)cc1C	16.2	16.4 µM [falling, partial curve]	–
COc1ccc(NC(=O)CSC2=NC(=O)CC(C)=N2)cc1	7.47	0.184 µM [rising, full curve, poor fit]	–
CCn1c(CCNC(=O)c2ccc(Cl)cc2)n[nH]c1=S	–	1.64 µM [falling, partial curve]	–
CCOc1ccc(Cl)cc1CSc1n[nH]c(CC)n1	29.6	2.06 µM [rising, partial curve]	–
COc1ccc(C(=O)NCC(c2ccco2)N2CCc3ccccc32)cc1 (stereo unspecified)	–	6.51 µM [rising, single point]	–
N#C/C(=C\c1ccc(-c2cccc([N+](=O)[O-])c2)o1)C(=O)NCCN1CCOCC1	75.5	–	29.1 µM [rising, single point]
CCCCS(=O)(=O)Nc1ccc2cn[nH]c2c1	42.3	20.6 µM [rising, partial curve, poor fit]	23.1 µM [rising, single point]
COCC(=O)NC(c1ccccc1)c1ccccc1	-71.4	–	29.1 µM [falling, single point]
Cc1coc(C)c1C(=O)CC1(O)C(=O)N(CCc2ccccc2)c2ccccc21 (stereo unspecified)	-14.6	20.6 µM [rising, single point]	–

A portion of the results above:
Structure (SMILES)	cell number change [%]	AC50 [1]	AC50 [2]
O=C(O)c1ccc2c(c1)C(=O)/C(=C/c1ccccc1)C2=O	-1.11	0.13 µM [falling, full curve, poor fit]	–
COc1cccc(CNC(=O)CN(C)S(=O)(=O)c2ccc3c(c2)CC(C)N3C(C)=O)c1 (stereo unspecified)	23.4	29.1 µM [rising, single point]	–
CC(C)n1c(N2CCN(CC(=O)Nc3ccc4c(c3)OCCO4)CC2)nc2ccccc21	–	–	6.51 µM [rising, single point]
CCOC(=O)N1CCN(C(=O)CNC(=O)c2ccc(Cl)cc2)CC1	-18.2	29.1 µM [rising, single point]	–
O=C(CCN1CCN(c2ccc([N+](=O)[O-])cc2)CC1)c1ccc(Cl)cc1	6.61	6.51 µM [falling, single point]	–
CC(C)Oc1ccc(C(CC(=O)NCCCN(C)C)c2ccc(F)cc2)cc1 (stereo unspecified)	53.9	0.146 µM [rising, full curve, poor fit]	29.1 µM [rising, single point]
CC(=O)N1CCN=C1SCc1cccc(C(F)(F)F)c1	14.2	29.1 µM [rising, single point]	–
COc1cc2c(cc1OC)C(C(=O)Nc1ccccc1N1CCN(C)CC1)C1c3ccccc3CCN1C2=O (stereo unspecified)	-32.8	29.1 µM [falling, single point]	18.4 µM [falling, partial curve, poor fit]
